Measurements taken from the supplement of paper PMC12823440, “Inhibitors supercharge kinase turnover through native proteolytic circuits” (Nature, 2025).
Some of the results follow. The calls rarely recur for the same compound in another form.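 In K562 cells expressing nanoluciferase-fused kinases, luminescence was recorded at 4 h intervals between 2 and 18 h, normalized as percent of control with DMSO at 100% and a positive control at 0%. A significant (2 sigma) signal drop marks a time point as decreased. The authors' rule for a hit is not shown and takes in more than the number of time points.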

Protein sequences, listed by entry. Tags and fused reporters are not part of them. Lines headed by an entry give the natural chain unless they say otherwise; changes in a name come on top.
UniProt Q9Y6E0: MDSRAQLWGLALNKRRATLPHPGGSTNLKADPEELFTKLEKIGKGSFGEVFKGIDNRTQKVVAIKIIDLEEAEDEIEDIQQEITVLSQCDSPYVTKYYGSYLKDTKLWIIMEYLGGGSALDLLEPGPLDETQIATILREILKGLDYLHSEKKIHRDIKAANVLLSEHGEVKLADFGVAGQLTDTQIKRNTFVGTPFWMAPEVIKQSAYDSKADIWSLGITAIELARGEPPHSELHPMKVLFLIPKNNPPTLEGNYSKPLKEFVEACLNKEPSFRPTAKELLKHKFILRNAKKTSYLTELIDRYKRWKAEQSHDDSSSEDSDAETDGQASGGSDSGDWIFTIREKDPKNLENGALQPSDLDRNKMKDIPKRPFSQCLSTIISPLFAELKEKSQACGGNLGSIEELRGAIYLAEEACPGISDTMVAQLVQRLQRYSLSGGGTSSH

target: STK24 (UniProt Q9Y6E0); assay: number of time points (of 5) at which kinase-Nluc abundance scored as decreased, DMSO-normalised (count); higher = more persistent destabilization; details: K562; 2-18 h

Row | Structure (SMILES) | number of time points
1 | COc1ccc(Cn2cc(C(=O)N=Nc3c(O)[nH]c4c(C)cccc34)nn2)cc1 [MARK4 inhibitor 1] (10 µM) | 0
2 | COc1cc([N+](=O)[O-])ccc1S(=O)(=O)N1C[C@@H](CN2CCN(c3ccccn3)CC2)[C@H](c2cccc(F)c2)C1 (relative stereo) (10 µM) | 0
3 | Cc1cc(Nc2nc(N[C@@H](C)c3ccc(F)cc3)c(C#N)cc2F)n[nH]1 (10 µM) | 0
4 | Cc1ccc(S(=O)(=O)/C=C/C#N)cc1 (10 µM) | 0
5 | Cc1c(CN2CCN(S(C)(=O)=O)CC2)sc2c(N3CCOCC3)nc(-c3cnc(N)nc3)nc12 (2.5 µM) | 0
6 | COc1ccc(-c2ccc3c(N4CCOC[C@@H]4C)nc(N4CCOC[C@@H]4C)nc3n2)cc1CO (2.5 µM) | 0
7 | CCN(CC)S(=O)(=O)c1ccc(OC)c(N2CCN(C(=O)c3ccc(F)cc3C(F)(F)F)CC2)c1 (10 µM) | 0
8 | CC1CN(C(=O)Nc2ccc(Cl)c(Cl)c2)C(=Nc2ccc(F)cc2)S1 (configuration not stated) (10 µM) | 0
9 | COCCO[C@@H]1[C@H](O)[C@@H](CO)O[C@H]1n1cnc2c(=O)[nH]c(N)nc21 [2′-O-(2-Methoxyethyl)guanosine] (10 µM) | 0
10 | COc1cc(F)c(F)c(Nc2ccc(I)cc2F)c1NS(=O)(=O)C1(C[C@H](O)CO)CC1 [Refametinib] (10 µM) | 0
11 | CC(C)=CC[C@H](O)C1=CC(=O)c2c(O)ccc(O)c2C1=O [(-)-Alkannin] (2.5 µM) | 0
12 | C[C@@]1(O)CCC[C@H]1n1c(=O)c(C(F)F)cc2cnc(NC3CCN(S(C)(=O)=O)CC3)nc21 (2.5 µM) | 0

Quoted at random: 2 records from the list.
Row | Structure (SMILES) | number of time points
8 | CC1CN(C(=O)Nc2ccc(Cl)c(Cl)c2)C(=Nc2ccc(F)cc2)S1 (configuration not stated) (10 µM) | 0
2 | COc1cc([N+](=O)[O-])ccc1S(=O)(=O)N1C[C@@H](CN2CCN(c3ccccn3)CC2)[C@H](c2cccc(F)c2)C1 (relative stereo) (10 µM) | 0
